Data taken from paper PMC9278858.
Results are given in words; binding and its absence hold for the method and conditions named. In cells and extracts the contact can be indirect. These calls come from enrichment with a bait or labelling near it, and not all partners need be listed. For some assays here: No binding means not detected with the bait. For some assays here: Tags and fused reporters may be left off the sequences shown. Blank lines part the entries; values can stand above or below the molecule they belong to.

Assays:
[1] = biological target: T1, Rpc160-HTP (largest subunit of RNAPIII, C-terminally His6–TEV–Protein A tagged) (S. cerevisiae) (UniProt P04051); assay: affinity purification with mass spectrometry; Rpc160-HTP as bait in WT (SEN1) or sen1-3 cells; IgG-coupled Dynabeads, 2 hours at 4°C; no RNase A treatment; label-free quantitative MS against an untagged control
T1 sequence: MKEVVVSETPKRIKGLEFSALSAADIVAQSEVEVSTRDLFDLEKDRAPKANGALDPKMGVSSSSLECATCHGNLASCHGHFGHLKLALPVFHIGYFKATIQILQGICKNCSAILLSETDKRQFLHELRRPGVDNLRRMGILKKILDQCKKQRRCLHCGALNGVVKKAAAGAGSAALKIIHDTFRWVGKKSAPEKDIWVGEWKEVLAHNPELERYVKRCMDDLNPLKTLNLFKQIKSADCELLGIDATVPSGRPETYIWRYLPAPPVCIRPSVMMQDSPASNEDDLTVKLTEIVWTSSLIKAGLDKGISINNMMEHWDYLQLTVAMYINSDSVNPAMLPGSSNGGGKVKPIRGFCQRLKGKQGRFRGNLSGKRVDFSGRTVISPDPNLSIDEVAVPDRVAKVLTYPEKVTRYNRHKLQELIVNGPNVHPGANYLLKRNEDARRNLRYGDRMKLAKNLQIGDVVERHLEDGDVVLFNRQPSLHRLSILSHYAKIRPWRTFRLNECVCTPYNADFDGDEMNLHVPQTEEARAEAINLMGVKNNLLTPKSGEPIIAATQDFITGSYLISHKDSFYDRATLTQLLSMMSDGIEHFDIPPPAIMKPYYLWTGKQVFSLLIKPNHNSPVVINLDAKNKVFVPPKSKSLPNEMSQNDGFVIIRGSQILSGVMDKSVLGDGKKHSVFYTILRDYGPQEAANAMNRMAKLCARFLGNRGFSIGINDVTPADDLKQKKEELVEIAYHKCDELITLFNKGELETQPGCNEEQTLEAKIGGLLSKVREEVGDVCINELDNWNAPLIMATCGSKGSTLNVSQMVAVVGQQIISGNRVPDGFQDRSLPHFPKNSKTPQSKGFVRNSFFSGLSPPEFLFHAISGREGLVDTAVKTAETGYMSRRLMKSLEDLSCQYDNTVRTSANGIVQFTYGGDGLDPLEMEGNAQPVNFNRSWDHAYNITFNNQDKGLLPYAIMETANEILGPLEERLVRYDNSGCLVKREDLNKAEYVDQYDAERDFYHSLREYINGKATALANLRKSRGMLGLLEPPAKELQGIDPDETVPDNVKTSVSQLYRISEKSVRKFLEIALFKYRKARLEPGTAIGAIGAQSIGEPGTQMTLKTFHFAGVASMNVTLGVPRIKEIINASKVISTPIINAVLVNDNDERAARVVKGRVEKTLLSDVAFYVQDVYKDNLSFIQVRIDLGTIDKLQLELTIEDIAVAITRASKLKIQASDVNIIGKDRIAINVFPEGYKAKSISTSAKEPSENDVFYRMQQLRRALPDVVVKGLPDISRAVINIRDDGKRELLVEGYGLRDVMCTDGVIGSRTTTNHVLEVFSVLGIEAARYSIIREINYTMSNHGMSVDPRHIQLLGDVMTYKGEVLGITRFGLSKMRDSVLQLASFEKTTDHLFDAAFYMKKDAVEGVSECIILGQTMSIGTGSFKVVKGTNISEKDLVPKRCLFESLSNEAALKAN

[2] = biological target: Sen1-3–TAP (Sen1 W773A E774A W777A fused to a TAP tag) (S. cerevisiae) (UniProt Q00416); assay: affinity purification with mass spectrometry; Sen1-TAP or Sen1-3–TAP as bait; yeast lysates; untagged control
[3] = biological target: Sen1-TAP (wild-type Sen1 fused to a TAP tag) (S. cerevisiae) (UniProt Q00416); assay: as above
[4] = biological target: T2, TAP-Sen1ΔNTD (Sen1 lacking the N-terminal domain, TAP-tagged, expressed from pGAL1) (S. cerevisiae) (UniProt Q00416); assay: affinity purification with mass spectrometry; TAP-tagged Sen1 versions (full length, ΔNTD, NTD) overexpressed from pGAL1 as baits; yeast lysates in 10 mM sodium phosphate pH 7.5, 200 mM sodium acetate, 0.25% NP-40, treated with RNase A; IgG Sepharose; elution by TEV cleavage; untagged control
T2 sequence: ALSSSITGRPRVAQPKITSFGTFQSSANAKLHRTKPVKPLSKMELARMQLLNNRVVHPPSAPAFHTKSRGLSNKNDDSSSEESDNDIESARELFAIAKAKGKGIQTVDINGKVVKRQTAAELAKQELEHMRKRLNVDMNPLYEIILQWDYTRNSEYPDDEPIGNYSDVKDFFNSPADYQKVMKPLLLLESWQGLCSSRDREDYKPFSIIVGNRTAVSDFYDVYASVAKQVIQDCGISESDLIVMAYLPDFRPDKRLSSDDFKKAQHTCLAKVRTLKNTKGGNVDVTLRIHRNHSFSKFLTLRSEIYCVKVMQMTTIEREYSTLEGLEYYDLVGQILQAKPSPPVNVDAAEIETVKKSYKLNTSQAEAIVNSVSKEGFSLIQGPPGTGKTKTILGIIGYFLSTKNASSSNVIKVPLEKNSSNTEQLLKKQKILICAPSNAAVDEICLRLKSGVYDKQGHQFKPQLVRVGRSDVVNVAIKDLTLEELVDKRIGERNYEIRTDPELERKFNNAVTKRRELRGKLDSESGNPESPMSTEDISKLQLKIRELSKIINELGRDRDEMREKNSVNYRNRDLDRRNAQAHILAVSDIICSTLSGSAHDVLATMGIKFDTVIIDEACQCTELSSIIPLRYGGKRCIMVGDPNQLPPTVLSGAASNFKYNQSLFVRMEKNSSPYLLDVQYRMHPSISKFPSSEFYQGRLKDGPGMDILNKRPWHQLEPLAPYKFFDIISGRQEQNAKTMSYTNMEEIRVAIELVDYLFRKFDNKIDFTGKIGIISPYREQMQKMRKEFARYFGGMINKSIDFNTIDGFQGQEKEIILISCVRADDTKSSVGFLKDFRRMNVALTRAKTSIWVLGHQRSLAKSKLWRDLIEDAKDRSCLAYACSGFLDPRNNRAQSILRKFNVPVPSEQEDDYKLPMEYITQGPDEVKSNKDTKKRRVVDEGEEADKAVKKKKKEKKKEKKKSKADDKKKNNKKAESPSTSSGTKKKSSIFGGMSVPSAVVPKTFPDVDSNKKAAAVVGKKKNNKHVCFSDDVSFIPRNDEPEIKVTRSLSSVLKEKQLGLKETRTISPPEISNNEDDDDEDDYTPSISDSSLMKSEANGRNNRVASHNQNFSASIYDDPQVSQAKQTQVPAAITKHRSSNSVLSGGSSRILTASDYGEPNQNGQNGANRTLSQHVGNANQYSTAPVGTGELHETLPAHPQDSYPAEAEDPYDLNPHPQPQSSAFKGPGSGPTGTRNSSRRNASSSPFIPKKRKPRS

[5] = biological target: T3, TAP-NTD (isolated N-terminal domain of Sen1, TAP-tagged, expressed from pGAL1) (S. cerevisiae) (UniProt Q00416); assay: as above
T3 sequence: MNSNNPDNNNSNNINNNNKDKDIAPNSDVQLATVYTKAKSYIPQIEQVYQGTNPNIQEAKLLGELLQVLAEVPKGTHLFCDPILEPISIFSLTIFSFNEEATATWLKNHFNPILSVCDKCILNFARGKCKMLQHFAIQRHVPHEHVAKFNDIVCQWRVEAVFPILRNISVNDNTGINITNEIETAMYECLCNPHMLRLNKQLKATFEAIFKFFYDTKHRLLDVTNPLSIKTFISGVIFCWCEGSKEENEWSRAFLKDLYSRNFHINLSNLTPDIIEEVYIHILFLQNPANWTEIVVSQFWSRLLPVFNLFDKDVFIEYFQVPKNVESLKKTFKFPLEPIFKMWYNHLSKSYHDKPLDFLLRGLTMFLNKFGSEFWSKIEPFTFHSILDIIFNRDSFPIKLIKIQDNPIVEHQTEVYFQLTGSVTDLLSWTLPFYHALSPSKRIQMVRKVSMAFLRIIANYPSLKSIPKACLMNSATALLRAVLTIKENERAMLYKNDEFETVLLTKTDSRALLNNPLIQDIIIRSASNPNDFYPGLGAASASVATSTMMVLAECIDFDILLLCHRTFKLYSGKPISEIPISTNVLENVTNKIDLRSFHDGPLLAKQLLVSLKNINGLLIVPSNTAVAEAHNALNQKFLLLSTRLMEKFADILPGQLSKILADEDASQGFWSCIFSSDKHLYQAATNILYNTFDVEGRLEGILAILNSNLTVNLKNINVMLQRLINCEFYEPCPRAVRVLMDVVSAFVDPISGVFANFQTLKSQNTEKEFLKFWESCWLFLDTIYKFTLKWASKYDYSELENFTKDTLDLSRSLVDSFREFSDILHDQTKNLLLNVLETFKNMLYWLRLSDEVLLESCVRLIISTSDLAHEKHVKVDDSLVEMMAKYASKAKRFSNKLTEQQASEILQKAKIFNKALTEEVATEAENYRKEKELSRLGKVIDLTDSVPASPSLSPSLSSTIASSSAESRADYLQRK

[6] = biological target: TAP-Sen1 (full-length Sen1 fused to a tandem affinity purification tag, expressed from pGAL1) (S. cerevisiae) (UniProt Q00416); assay: as above

- binding [1]: binds
Molecule: Sen1 (untagged, in cells expressing Rpc160-HTP, SEN1 background) (from UniProt Q00416 1-2231)

- binding [2]: binds
- binding [3]: binds
- binding [4]: binds
- binding [5]: no binding
- binding [6]: binds
B1: Nab3 (protein, UniProt P38996 1-802)
chain: MSDENHNSDVQDIPSPELSVDSNSNENELMNNSSADDGIEFDAPEEEREAEREEENEEQHELEDVNDEEEEDKEEKGEENGEVINTEEEEEEEHQQKGGNDDDDDDNEEEEEEEEDDDDDDDDDDDDEEEEEEEEEEGNDNSSVGSDSAAEDGEDEEDKKDKTKDKEVELRRETLEKEQKDVDEAIKKITREENDNTHFPTNMENVNYDLLQKQVKYIMDSNMLNLPQFQHLPQEEKMSAILAMLNSNSDTALSVPPHDSTISTTASASATSGARSNDQRKPPLSDAQRRMRFPRADLSKPITEEEHDRYAAYLHGENKITEMHNIPPKSRLFIGNLPLKNVSKEDLFRIFSPYGHIMQINIKNAFGFIQFDNPQSVRDAIECESQEMNFGKKLILEVSSSNARPQFDHGDHGTNSSSTFISSAKRPFQTESGDMYNDDNGAGYKKSRRHTVSCNIFVKRTADRTYAIEVFNRFRDGTGLETDMIFLKPRMELGKLINDAAYNGVWGVVLVNKTHNVDVQTFYKGSQGETKFDEYISISADDAVAIFNNIKNNRNNSRPTDYRAMSHQQNIYGAPPLPVPNGPAVGPPPQTNYYQGYSMPPPQQQQQQPYGNYGMPPPSHDQGYGSQPPIPMNQSYGRYQTSIPPPPPQQQIPQGYGRYQAGPPPQPPSQTPMDQQQLLSAIQNLPPNVVSNLLSMAQQQQQQPHAQQQLVGLIQSMQGQAPQQQQQQLGGYSSMNSSSPPPMSTNYNGQNISAKPSAPPMSHQPPPPQQQQQQQQQQQQQQQQPAGNNVQSLLDSLAKLQK

- binding [2]: binds
- binding [3]: binds
- binding [4]: binds
- binding [5]: no binding
- binding [6]: binds
B2: Nrd1 (protein, UniProt P53617 1-575)
chain: MQQDDDFQNFVATLESFKDLKSGISGSRIKKLTTYALDHIDIESKIISLIIDYSRLCPDSHKLGSLYIIDSIGRAYLDETRSNSNSSSNKPGTCAHAINTLGEVIQELLSDAIAKSNQDHKEKIRMLLDIWDRSGLFQKSYLNAIRSKCFAMDISNNTANTASQQLSLDPKQRSKQILSNLKKSPPLNLNISLPTDLTSTDPAKQQAALFQVIAALQKHFKTLPSHTSVGTVAPPQAHTITEYGSRRERERERERYNSRRNRSRSPPAPFSQPSTGRKDRYPSVAQDQYSIGAPNTTFGTNNHHLYPDELNVSNNPHYRPKPVSYDSTLPPDHIKVYSRTLFIGGVPLNMKEWDLANVLKPFAEVQSVILNNSRKHAFVKVYSRHEAENVLQNFNKDGALPLRTRWGVGFGPRDCCDYQHGYSIIPMHRLTDADKKWSVSAQWGGTSGQPLVTGIVFEEPDIIVGEGVSSKAISQKMPTDSGRNGPRSGKPNKSGSISSISPVPYGNAPLASPPPQQYVQPMMQQPYGYAPNQPLPSQGPAAAAPPVPQQQFDPTAQLNSLMNMLNQQQQQQQQS
